# Laboratory results as given in PubChem BioAssay AID485314 (National Center for Advancing Translational Sciences (NCATS), 2010).
# The whole screen tested about 340,000 compounds, of which about 4,500 (1.3%) were called active. This list was built around the results that the source calls inconclusive (neither active nor inactive); the mix of calls is not that of the screen. The call rests on the fitted dose curve; in most records, active means well fitted inhibition curve with a large enough effect; inconclusive means small, poorly fitted or top-dose-only effect, or another doubt; inactive means no such curve, though single readings can be large or run the other way. Where the call is inconclusive, the potency comes from a doubtful curve fit.
# Biological target: DNA polymerase beta (Homo sapiens) (UniProt P06746)
# Assay: qHTS Assay for Inhibitors of DNA Polymerase Beta
# Conditions: Pol beta primer extension/strand displacement, fluorescence kinetic; series mostly up to 114 µM
# In short: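 Enzyme-only controls used 10 nM Pol beta; buffer lacking enzyme served as negative control. Compound preincubated 15 min, then 50 nM substrate added; 0 and 10 min reads at room temperature.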
# Potency means the concentration at half of the fitted maximal effect.
row,Structure (SMILES),Potency
1,Cc1cc(C)c(NC(=O)CSc2nc3ccccc3c3nc(CCn4cncc4C)nn23)c(C)c1,"inconclusive: 25.1 µM [inhibitor, partial curve, poor fit]"
2,CC(/C=C/c1ccco1)=N/NC(=O)c1ccccc1Cl,inactive
3,Cc1ccc(CNC(=O)c2ccc(N3CCCC3)c(NC(=O)Nc3ccc(F)c(Cl)c3)c2)cc1,inactive
4,Cc1cc(C)c(NC(=O)Cn2c(=O)n(Cc3ccc(C(=O)NCc4ccc5c(c4)OCO5)cc3)c(=O)c3ccccc32)c(C)c1,"inconclusive: 7.08 µM [inhibitor, full curve]"
5,COc1cccc(-n2c(SCc3ccc(F)cc3)nc3c([nH]c4ccccc43)c2=O)c1,inactive
6,CC1CCCCN1c1nnc(NC(=O)c2cc(-c3ccc(Br)cc3)on2)s1 (stereo not drawn),inactive
7,CC1CCCC(C)N1C(=O)CSc1nnc(NC(=O)Cc2cccs2)s1 (stereo not drawn),"inconclusive: 22.4 µM [inhibitor, full curve, poor fit]"
8,COc1ccc(C(C(=O)Nc2ccc(C(C)C)cc2)N(C)C(=O)CNC(C)=O)cc1 (stereo not drawn),"inconclusive: 0.1 µM [inhibitor, full curve, poor fit]"
9,Cc1cccc(C)c1NC(=O)c1ccccc1C(=O)O,"inconclusive: 0.316 µM [inhibitor, full curve, poor fit]"
10,Nc1nc(Nc2ccccc2)nc(NCc2ccco2)c1[N+](=O)[O-],"inconclusive: 17.8 µM [inhibitor, partial curve]"
11,Cc1ccc(NC(=O)C2CCN(C(=O)c3ccccc3C)CC2)cc1,"inconclusive: 89.1 µM [inhibitor, single point]"
12,CCc1occc(=O)c1Oc1cc(NN2CCCCC2)c([N+](=O)[O-])cc1[N+](=O)[O-],"inconclusive: 28.2 µM [inhibitor, single point]"
13,CSc1ncccc1C(=O)Nc1nc2ccc(Oc3ccccc3)cc2s1,"inconclusive: 89.1 µM [inhibitor, single point]"
14,O=C(CNc1cccc2ccccc12)N/N=C/c1ccc(OC(=O)/C=C/c2ccco2)cc1,"inconclusive: 39.8 µM [inhibitor, single point]"
15,CCOc1cccc(CC(=O)N2CCc3c([nH]c4ccc(OC)cc34)C2c2ccc(F)cc2)c1OCC (stereo not drawn),inactive
16,Cc1ccc2c(Cl)c(C(=O)NCC3CCCO3)sc2c1 (stereo not drawn),"inconclusive: 79.4 µM [inhibitor, single point]"
17,O=c1ccc2cc3c([nH]c4ccc(Br)cc43)oc-2c1O,active: 10 µM
18,Fc1ccc(-c2ccnc3nc(-n4cccc4)nn23)cc1,"inconclusive: 22.4 µM [inhibitor, full curve, poor fit]"

# Some of the entries so far, bar-delimited:
row | Structure (SMILES) | Potency
8 | COc1ccc(C(C(=O)Nc2ccc(C(C)C)cc2)N(C)C(=O)CNC(C)=O)cc1 (stereo not drawn) | inconclusive: 0.1 µM [inhibitor, full curve, poor fit]
9 | Cc1cccc(C)c1NC(=O)c1ccccc1C(=O)O | inconclusive: 0.316 µM [inhibitor, full curve, poor fit]
